Data: PubChem BioAssay AID588590 (National Center for Advancing Translational Sciences (NCATS), 2011)
Among all 390,000 compounds or so, about 4,000 (1%) were called active. This list was built around the results that the source calls inconclusive (neither active nor inactive); the mix of calls is not that of the screen. Calls come from the whole dose curve; as a rule, active = well fitted inhibition curve with a large enough effect; inconclusive = small, poorly fitted or top-dose-only effect, or another doubt; inactive = no such curve, though single readings can be large or run the other way. Potencies beside an inconclusive call are fits to weak or partial responses and may not hold up.

The chains behind the UniProt entries cited, without tags or fusion partners. Where a name states a change or a piece, a line headed by the entry shows the natural chain unless it says otherwise.
UniProt Q9UNA4: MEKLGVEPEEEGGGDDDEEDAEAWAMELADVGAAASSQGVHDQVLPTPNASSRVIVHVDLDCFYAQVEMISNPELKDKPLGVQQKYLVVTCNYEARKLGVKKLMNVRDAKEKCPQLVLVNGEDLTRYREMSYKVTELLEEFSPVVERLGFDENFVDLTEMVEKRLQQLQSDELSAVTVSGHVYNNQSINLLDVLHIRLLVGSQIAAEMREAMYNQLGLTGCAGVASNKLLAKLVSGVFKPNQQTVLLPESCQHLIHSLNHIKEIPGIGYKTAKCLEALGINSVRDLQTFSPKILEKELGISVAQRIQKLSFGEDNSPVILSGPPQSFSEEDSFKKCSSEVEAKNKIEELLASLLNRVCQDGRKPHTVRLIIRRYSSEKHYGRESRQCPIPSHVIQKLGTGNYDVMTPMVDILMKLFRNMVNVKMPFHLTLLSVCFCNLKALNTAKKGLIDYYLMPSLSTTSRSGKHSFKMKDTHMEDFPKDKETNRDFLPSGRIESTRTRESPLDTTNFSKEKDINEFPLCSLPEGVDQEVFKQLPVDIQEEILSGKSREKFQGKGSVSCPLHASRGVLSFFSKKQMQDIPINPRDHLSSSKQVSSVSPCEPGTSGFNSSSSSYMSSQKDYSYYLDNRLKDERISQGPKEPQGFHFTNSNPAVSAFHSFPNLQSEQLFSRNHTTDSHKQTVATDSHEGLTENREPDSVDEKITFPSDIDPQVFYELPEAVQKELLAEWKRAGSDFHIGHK

molecular target: DNA polymerase iota (Homo sapiens) (UniProt Q9UNA4); assay: qHTS for Inhibitors of Polymerase Iota; conditions: Pol iota fluorescent replication assay, 10 min; series mostly up to 115 µM
Procedure, shortened: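 Fluorescent replication assay read twice, at 0 min and 10 min after adding 50 nM (final) substrate. Enzyme (10 nM) and compounds were first incubated 15 min at room temperature; enzyme-free buffer wells were negative controls.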
Potency is the fitted concentration of half-maximal effect.

| Compound | Potency |
| --- | --- |
| Cn1c(=O)c(=O)n(C)c2cc(S(=O)(=O)CCC(=O)Nc3ccc(F)cc3)ccc21 | inactive |
| CC1(C)c2[nH]c3ccccc3c2C[C@@H]2C(=O)N(Cc3ccco3)C(=O)N21 | inconclusive: 39.8 µM [inhibitor, partial curve, poor fit] |
| COc1ccc(N2C(=O)c3ccc(C(=O)OC(C)C)cc3C2=O)cc1 | inconclusive: 3.16 µM [inhibitor, partial curve, poor fit] |
| O=C1/C(=C/c2ccco2)Oc2c1ccc(O)c2CN1CCCCC1 | inconclusive: 1.78 µM [inhibitor, full curve, poor fit] |
| CNC(=O)c1cc(Nc2nnc(-c3ccc(C)c(S(N)(=O)=O)c3)c3ccccc23)ccc1OC | inconclusive: 17.8 µM [inhibitor, partial curve, poor fit] |
| Cc1ccc(-c2nnn3c2nc(NCCc2ccc(Cl)cc2)c2ccccc23)cc1 | inactive |
| CCN(C(=O)c1coc(=O)c2ccccc12)c1ccccc1C | inactive |
| CCN(CC)c1ccc(C(=O)Nn2cnc3ccccc3c2=O)cc1 | inactive |
| O=C1C2C3C=CC(CC3)C2C(=O)N1/N=C/c1ccc(O)c(O)c1 (stereo not given) | inconclusive: 20 µM [inhibitor, full curve, poor fit] |
| O=C1c2ccccc2NC(c2ccc3c(c2)OCO3)N1Cc1ccco1 (stereo not given) | inactive |
| C/C(=N\Nc1ccc(S(=O)(=O)Nc2ccccc2)cc1[N+](=O)[O-])c1ccc(N2CCOCC2)cc1 | inconclusive: 7.08 µM [inhibitor, full curve, poor fit] |
| COc1ccc(-c2sc3cc(OC)c(OC)cc3c2C#CCO)cc1 | inconclusive: 0.708 µM [inhibitor, partial curve, poor fit] |
| O=C(COc1ccc2c3c(c(=O)oc2c1)CCC3)Nc1ccc(CCO)cc1 | inconclusive: 70.8 µM [inhibitor, partial curve] |
| O=C(NC(=O)c1cnccc1C(F)(F)F)Nc1ccccc1 | inactive |
| COCc1cc([C@@H]2C[C@H]3CN(c4ccccc4)C(=O)[C@]34CCCN24)ccc1OC | inconclusive: 89.1 µM [inhibitor, single point] |
| CN1CCN(C(=O)c2cccn(Cc3ccc(C(F)(F)F)cc3)c2=O)CC1 | inconclusive: 63.1 µM [inhibitor, single point] |
| CN(C)S(=O)(=O)c1cc(NC(=O)COC(=O)/C=C/c2ccco2)ccc1Cl | inconclusive: 12.6 µM [inhibitor, full curve, poor fit] |
| Cc1c(Cl)cccc1NC(=O)CN(CCc1ccccc1)S(=O)(=O)c1ccccc1 | inactive |
| Cc1cc2nc(/C(C#N)=C\c3ccc(-c4ccccc4C(=O)O)o3)[nH]c2cc1C | inconclusive: 35.5 µM [inhibitor, single point] |
| O=C(Nc1ccc(S(=O)(=O)Nc2ncccn2)cc1)c1ccc2ncsc2c1 | inconclusive: 10 µM [inhibitor, full curve, poor fit] |

An excerpt from above in order of number of heavy atoms, falling:

| Compound | Potency |
| --- | --- |
| O=C(COc1ccc2c3c(c(=O)oc2c1)CCC3)Nc1ccc(CCO)cc1 | inconclusive: 70.8 µM [inhibitor, partial curve] |
| COc1ccc(-c2sc3cc(OC)c(OC)cc3c2C#CCO)cc1 | inconclusive: 0.708 µM [inhibitor, partial curve, poor fit] |
| O=C1C2C3C=CC(CC3)C2C(=O)N1/N=C/c1ccc(O)c(O)c1 (stereo not given) | inconclusive: 20 µM [inhibitor, full curve, poor fit] |

Continuation:

| Compound | Potency |
| --- | --- |
| O=[N+]([O-])c1ccc(/C=C/c2ccnc3ccccc23)cc1 | inactive |
| Cc1ccn2c(C(=O)N/N=C\c3cccs3)c(C)nc2c1 | inconclusive: 70.8 µM [inhibitor, partial curve] |
| CC(=O)Cc1nsc(NC(=O)c2c(-c3ccccc3Cl)noc2C)n1 | inconclusive: 89.1 µM [inhibitor, single point] |
| C/C(=N\NC(=O)c1nnn(-c2nonc2N)c1CN(C)c1ccccc1)c1cccnc1 | inconclusive: 63.1 µM [inhibitor, single point] |
| Cc1ccccc1NS(=O)(=O)c1ccc2[nH]cc(C(=O)N3CCCCC3)c(=O)c2c1 | inconclusive: 79.4 µM [inhibitor, partial curve, poor fit] |
| COc1ccc(C)cc1-n1nnc(-c2nc(-c3ccccc3Cl)no2)c1N | inconclusive: 100 µM [inhibitor, partial curve, poor fit] |
| COC(=O)c1ccc(-c2ccc(/C=N/N3C(=O)C4C5C=CC(C6CC56)C4C3=O)o2)cc1 (stereo not given) | inconclusive: 31.6 µM [inhibitor, partial curve, poor fit] |
| CN(C)C(=O)c1ccc(NC(=O)COC(=O)C2(c3ccccc3)CCCC2)cc1 | inconclusive: 89.1 µM [inhibitor, partial curve, poor fit] |
| Cc1cc(C(=O)COc2ccccc2C(N)=O)c(C)n1C | inactive |
| COc1ccc(-c2noc(CNS(=O)(=O)c3ccccc3)n2)cc1 | inconclusive: 1.41 µM [inhibitor, full curve, poor fit] |
| COc1ccccc1NS(=O)(=O)c1cc(NC(=O)C(C)NC(N)=O)ccc1N1CCCC1 (stereo not given) | inconclusive: 17.8 µM [inhibitor, partial curve, poor fit] |
| CCOc1ccc(C2C(C#N)=C(N)Oc3n[nH]c(C)c32)cc1OC(=O)C1CC1 (stereo not given) | inconclusive: 22.4 µM [inhibitor, single point] |
| CCOC(=O)Cc1cc(=O)n2[nH]c(C)c(-c3ccccc3)c2n1 | inconclusive: 22.4 µM [inhibitor, full curve, poor fit] |
| O=C(CCN1CCc2ccccc21)c1ccc2c(c1)OCCO2 | inconclusive: 35.5 µM [inhibitor, single point] |
| O=C1COc2ccc(C(=O)CSc3ccccc3C(=O)O)cc2N1 | inconclusive: 89.1 µM [inhibitor, single point] |
| Cc1nc(SCC(=O)NCc2ccc3c(c2)OCO3)c(C#N)c2c1CCCC2 | inconclusive: 39.8 µM [inhibitor, single point] |
| C=CCNC(=O)CSc1nc2sccc2c(=O)n1-c1ccccc1 | inconclusive: 56.2 µM [inhibitor, partial curve] |
| N#Cc1c2ccc(OCC(=O)NCc3ccco3)cc2n2ccccc12 | inconclusive: 11.2 µM [inhibitor, partial curve] |
| O=C1/C(=C/c2ccccc2Cl)SC(=S)N1CCC(=O)N1CCCCC1CCO (stereo not given) | active: 25.1 µM |
| O=C(c1cc2c(s1)-c1ccccc1OC2)N1CCN(c2ccccc2)CC1 | inconclusive: 0.355 µM [inhibitor, full curve, poor fit] |
